One test concerns the target myc-MAGI2 PDZ2-5 (rat) (UniProt O88382). In words: co-IP; lysates of HEK293 cells transiently co-transfected; IP overnight at 4°C with anti-GFP, anti-myc, anti-HA or anti-flag and Protein G Dynabeads; washes with 500 mM NaCl, 0.1% SDS, 0.5% Triton X-100; immunoblot; for syntenin-1 under basal conditions and after CRH (100 nM) treatment. For orientation: Immunoblotting shows a protein as a band on a membrane.

The chains behind the UniProt entries cited, without tags or fusion partners. Where a name states a change or a piece, a line headed by the entry shows the natural chain unless it says otherwise. Residues count along the entry.
UniProt O88382: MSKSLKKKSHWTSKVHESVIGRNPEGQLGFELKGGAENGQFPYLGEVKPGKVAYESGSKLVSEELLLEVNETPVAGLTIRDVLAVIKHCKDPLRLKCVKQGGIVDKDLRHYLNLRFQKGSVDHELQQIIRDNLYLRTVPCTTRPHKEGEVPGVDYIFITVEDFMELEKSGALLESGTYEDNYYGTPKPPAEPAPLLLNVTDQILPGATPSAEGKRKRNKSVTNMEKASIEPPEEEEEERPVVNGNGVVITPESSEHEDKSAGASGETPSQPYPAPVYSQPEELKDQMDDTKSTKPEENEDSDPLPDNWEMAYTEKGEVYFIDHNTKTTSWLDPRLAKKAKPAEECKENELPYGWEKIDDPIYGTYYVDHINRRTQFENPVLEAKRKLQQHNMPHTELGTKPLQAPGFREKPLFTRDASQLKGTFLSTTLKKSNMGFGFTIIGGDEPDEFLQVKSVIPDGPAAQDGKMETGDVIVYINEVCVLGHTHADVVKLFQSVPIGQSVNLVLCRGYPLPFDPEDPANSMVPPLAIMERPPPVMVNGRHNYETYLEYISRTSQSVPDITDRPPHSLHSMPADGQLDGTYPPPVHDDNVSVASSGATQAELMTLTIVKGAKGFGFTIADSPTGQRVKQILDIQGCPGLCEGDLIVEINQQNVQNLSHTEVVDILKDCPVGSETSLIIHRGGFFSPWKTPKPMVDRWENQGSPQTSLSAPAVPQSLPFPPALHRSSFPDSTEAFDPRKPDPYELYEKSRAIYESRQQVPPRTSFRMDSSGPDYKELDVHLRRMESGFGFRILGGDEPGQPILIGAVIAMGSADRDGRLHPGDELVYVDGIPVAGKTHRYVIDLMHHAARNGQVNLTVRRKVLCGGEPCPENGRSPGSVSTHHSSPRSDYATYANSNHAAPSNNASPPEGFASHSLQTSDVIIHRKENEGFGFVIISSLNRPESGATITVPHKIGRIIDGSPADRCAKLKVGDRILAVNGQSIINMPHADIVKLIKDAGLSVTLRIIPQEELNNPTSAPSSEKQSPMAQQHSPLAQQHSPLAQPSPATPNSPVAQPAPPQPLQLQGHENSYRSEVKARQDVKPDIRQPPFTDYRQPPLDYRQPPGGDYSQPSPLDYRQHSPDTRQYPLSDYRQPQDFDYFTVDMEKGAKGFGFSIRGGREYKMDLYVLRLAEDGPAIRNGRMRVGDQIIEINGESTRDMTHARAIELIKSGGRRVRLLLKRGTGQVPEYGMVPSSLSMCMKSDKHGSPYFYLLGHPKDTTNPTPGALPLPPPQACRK
UniProt P34998, residues 24-415: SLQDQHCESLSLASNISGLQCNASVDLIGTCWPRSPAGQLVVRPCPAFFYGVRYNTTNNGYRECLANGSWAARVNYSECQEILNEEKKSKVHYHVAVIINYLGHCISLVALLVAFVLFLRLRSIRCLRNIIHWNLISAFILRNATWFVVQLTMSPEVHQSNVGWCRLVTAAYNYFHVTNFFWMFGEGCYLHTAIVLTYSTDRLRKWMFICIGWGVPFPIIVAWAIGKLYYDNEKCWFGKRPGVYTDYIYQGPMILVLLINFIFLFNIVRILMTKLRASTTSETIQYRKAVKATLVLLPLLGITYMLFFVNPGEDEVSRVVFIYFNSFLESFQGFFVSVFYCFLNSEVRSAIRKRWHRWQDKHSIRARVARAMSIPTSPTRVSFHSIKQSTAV

A further test has as its target flag-CRHR1 (human) (UniProt P34998). The description is as above.

Results are given in words; binding and its absence hold for the method and conditions named. Binding seen in cells or lysates may run through a third protein. A result given as binding can be weak or reduced; the word gives no strength.

Consider “flag-CRHR1 (from UniProt P34998-2 24-415) (receptor)”, for which the binding entry with myc-MAGI2 PDZ2-5 (rat) is reported as “binds”.

Consider “myc-MAGI2 PDZ2-5 (from UniProt O88382) (domain or fragment)”, for which the binding entry with flag-CRHR1 (human) is listed as “binds”.

Values taken from PMC4564177.
